According to patent US9738613B2, “Substituted 1,2,3-triazoles as antitumor agents” (National Central University, priority 2015, dated 2017):
Some results were stated once for a whole list of compounds, not compound by compound.

System: DU-145 cells
Assay: Sulforhodamine B (SRB) growth inhibition assay, DU-145 cells
Assay type: cell-based, Human
Conditions: 72 hours, bound stated, read-out: IC50 in DU-145 cells (text summary of Table 1)
Method: Human hormone-refractory prostate cancer cell lines PC-3 and DU-145 were from American Type Culture Collection (Rockville, MD). Cells were cultured in RPMI 1640 medium with 10% FBS (v/v) and penicillin (100 U/ml)/streptomycin (100 μg/ml). Cultures were maintained in a humidified incubator at 37° C. in 5% CO2/95% air.
Cells were seeded in 96-well plates in medium with 5% FBS. After 24 hours, cells were fixed with 10% TCA to represent cell population at the time of drug addition (T0). After additional incubation of DMSO or the compound for 48 hours (PC-3 cells) or 72 hours (DU145 cells), cells were fixed with 10% TCA and SRB at 0.4% (w/v) in 1% acetic acid was added to stain cells. Unbound SRB was washed out by 1% acetic acid and SRB bound cells were solubilized with 10 mM Trizma base. The absorbance was read at a wavelength of 515 nm. Using the following absorbance measurements, such as time zero (T0), control growth (C), and cell growth in the presence of the compound (Tx), the percentage growth was calculated at each of the compound concentrations levels. Percentage growth inhibition was calculated as: [1−(Tx−T0)/(C−T0)]×100%. Growth inhibition of 50% (IC50) is determined at the compound concentration which results in 50% reduction of total protein increase in control cells during the compound incubation. Data are expressed as mean±SEM of three to five determinations.

## 2-Amino-2-(4-(1-tetradecyl-1H-1,2,3-triazol-4-yl)butyl)propane-1,3-diol hydrochloride [Compound 10]
  IC50: < 10 µM
